No constants are given. Whether binding was seen depends on the method and setting. In cells and extracts the contact can be indirect. These calls come from enrichment with a bait or labelling near it, and not all partners need be listed.
Biological target: EVL (Ena/VASP-like protein), endogenous (mouse (endogenous in primary cortical neurons)) (UniProt P70429)
Experiment: affinity purification with mass spectrometry

Amino acid sequences for entries named in this document (tags omitted).
UniProt P70429: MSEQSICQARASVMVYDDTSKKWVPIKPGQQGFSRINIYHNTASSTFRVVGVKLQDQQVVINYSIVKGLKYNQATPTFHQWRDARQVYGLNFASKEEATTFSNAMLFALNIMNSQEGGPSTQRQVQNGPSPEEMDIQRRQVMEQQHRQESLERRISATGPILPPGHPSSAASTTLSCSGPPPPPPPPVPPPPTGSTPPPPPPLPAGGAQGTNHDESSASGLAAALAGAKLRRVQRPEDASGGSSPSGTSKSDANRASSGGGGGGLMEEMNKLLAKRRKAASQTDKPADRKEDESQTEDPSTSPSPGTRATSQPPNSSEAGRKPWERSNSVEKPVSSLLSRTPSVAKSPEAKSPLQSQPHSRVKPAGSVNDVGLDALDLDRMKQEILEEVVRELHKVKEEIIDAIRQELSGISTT

- binding: binds
B1: MIM/MTSS1, endogenous (protein, UniProt Q8R1S4 1-759)
chain: MEAVIEKECSALGGLFQTIISDMKGSYPVWEDFINKAGKLQSQLRTTVVAAAAFLDAFQKVADMATNTRGGTREIGSALTRMCMRHRSIEAKLRQFSSALIDCLINPLQEQMEEWKKVANQLDKDHAKEYKKARQEIKNKSSDTLKLQKKAKKVDAQGRGDIQPQLDSALQDVNDKYLLLEETEKQAVRKALIEERGRFCTFISMLRPVIEEEISMLGEITHLQTISEDLKSLTMDPHKLPSSSEQVILDLKGSDYSWSYQTPPSSPSTTMSRKSSVCSSLNSVNSSDSRSSGSHSHSPSSHYRYRSSNLAQQAPVRLSSVSSHDSGFISQDAFQSKSPSPMPPEAANQLSNGFSHCSLSSESHAGPVGAGPFPHCLPASRLLPRVTSVHLPDYAHYYTIGPGMFPSSQIPSWKDWAKPGPYDQPLVNTLQRRKEKREPDSNGGGPTTTGGPPAGAEEAQRPRSMTVSAATRPGEEMAACEELTLALSRGLQLDVQRSSRDSLQCSSGYSTQTTTPCCSEDTIPSQVSDYDYFSVSGDQEAEQQEFDKSSTIPRNSDISQSYRRMFQAKRPASTAGLPTTLGPAMVTPGVATIRRTPSTKPSVRRGTIGAGPIPIKTPVIPVKTPTVPDLPGVLPSPPDGPEERGEHSPESPSAGEGPQGVSNIPSSLWSGQAPVNPPLPGPKPSIPEEHRQAIPESEAEDQERDPPSATVSPGPIPESDPADLSPRESPQGEDMLNAIRRGVKLKKTTTNDRSAPRFS
